# Library screen at single concentrations

Chains of the proteins cited; added tags and fusions are not shown. Residues count along the entry.
UniProt Q4DA54, 1-478: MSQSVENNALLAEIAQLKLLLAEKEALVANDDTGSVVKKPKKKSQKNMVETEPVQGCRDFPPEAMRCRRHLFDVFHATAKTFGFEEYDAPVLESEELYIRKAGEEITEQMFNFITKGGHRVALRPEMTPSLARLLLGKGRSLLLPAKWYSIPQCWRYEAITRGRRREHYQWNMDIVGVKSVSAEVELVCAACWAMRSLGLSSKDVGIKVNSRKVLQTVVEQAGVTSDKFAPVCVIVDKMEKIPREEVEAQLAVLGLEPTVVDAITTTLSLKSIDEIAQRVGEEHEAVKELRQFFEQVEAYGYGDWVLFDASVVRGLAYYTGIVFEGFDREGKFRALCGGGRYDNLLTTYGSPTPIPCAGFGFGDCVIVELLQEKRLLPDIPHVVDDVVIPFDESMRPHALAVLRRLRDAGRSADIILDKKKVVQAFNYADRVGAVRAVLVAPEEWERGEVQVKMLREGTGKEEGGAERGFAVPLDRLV
UniProt A4I591, 1-473: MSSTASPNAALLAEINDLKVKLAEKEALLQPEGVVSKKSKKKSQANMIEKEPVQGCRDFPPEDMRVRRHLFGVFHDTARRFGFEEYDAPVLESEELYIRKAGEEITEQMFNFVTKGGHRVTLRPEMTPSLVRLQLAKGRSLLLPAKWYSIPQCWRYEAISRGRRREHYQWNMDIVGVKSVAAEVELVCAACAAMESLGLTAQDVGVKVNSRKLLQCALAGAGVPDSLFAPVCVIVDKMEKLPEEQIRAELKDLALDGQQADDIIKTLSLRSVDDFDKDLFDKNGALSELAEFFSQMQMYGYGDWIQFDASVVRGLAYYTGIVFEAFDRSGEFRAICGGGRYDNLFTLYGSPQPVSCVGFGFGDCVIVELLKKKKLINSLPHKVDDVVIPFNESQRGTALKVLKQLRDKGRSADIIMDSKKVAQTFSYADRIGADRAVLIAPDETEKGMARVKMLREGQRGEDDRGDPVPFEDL
UniProt P9WPC5, whole entry: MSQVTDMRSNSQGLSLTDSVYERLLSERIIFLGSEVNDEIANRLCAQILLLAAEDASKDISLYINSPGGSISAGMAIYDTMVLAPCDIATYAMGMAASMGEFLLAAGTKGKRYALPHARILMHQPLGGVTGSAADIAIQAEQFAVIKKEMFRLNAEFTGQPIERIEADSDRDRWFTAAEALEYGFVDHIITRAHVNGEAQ
UniProt P9WPC3, whole entry partner: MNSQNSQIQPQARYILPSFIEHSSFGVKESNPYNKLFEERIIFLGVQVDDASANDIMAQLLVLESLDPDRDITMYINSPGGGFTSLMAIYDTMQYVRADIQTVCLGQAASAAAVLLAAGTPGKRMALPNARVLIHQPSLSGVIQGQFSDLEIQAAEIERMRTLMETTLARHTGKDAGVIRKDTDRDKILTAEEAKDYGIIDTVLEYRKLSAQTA

A: 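Assay of Toxoplasma gondii numbers, read through their beta-galactosidase reporter with a colour substrate. Compounds at 10 µM. The record gives no direction; the compounds picked for IC50 retests had high values, so higher reads as fewer parasites. Of about 67,000 compounds tested this way, about 260 (0.38%) reached 50% or more in at least one test.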
B: 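Cell assay of Leishmania donovani living inside macrophages; the read-out is not stated. Tested at 30 µM. Direction is inferred from retests: higher values go with stronger inhibition. Of about 69,000 compounds tested this way, about 1,000 (1.5%) reached 50% or more in at least one test.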
C: 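Enzyme assay of histidyl-tRNA synthetase; the read-out is not stated. Target: Histidine-tRNA ligase, Trypanosoma cruzi CL Brener (UniProt Q4DA54). Concentration: 30 µM. Direction is inferred from retests: higher values go with stronger inhibition. Of about 69,000 compounds tested this way, about 31 (0.045%) reached 50% or more in at least one test.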
D: 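Histidine-tRNA ligase, Leishmania infantum (UniProt A4I591). Enzyme assay of histidyl-tRNA synthetase; the read-out is not stated. Tested at 30 µM. Direction is inferred from retests: higher values go with stronger inhibition. The assay is labelled LdHisRS but filed under L. infantum. Of about 69,000 compounds tested this way, about 410 (0.6%) reached 50% or more in at least one test.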
E: 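Protease assay of ClpP1P2, read by the AMC dye that it sets free. Target: ClpP1P2, Mycobacterium tuberculosis (UniProt P9WPC5 and UniProt P9WPC3). Concentration: 50 µM. Direction is inferred from only a few compounds that gave an IC50; most scored high, so higher reads as stronger inhibition. Most other retested compounds had strongly negative values. Of about 69,000 compounds tested this way, about 10 (0.015%) reached 50% or more in at least one test.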
F: 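Whole-parasite assay of Trypanosoma brucei over 72 hours; the read-out is not stated. Compounds at 30 µM. Higher reads as stronger inhibition (inferred: compounds with an IC50 in retests scored well above the rest). Values scatter widely below zero; nearly all retest evidence comes from the higher of the two concentrations used. About 64,000 compounds were tested under these conditions; 1.5% (about 940) showed 50% or more at least once.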

Each number is a percent effect as filed. The record does not define 0% and 100%; most values in the screen are far below 50% and negative numbers occur (in some assays of this library far below -100). Compounds were drawn at random from those tested, without regard to their results. Two or more numbers in one place are separate tests of the same structure; such repeats can differ widely.

CNC(=O)COC1COC2(CCN(Cc3ccncc3F)CC2)C1.O=C(O)C(F)(F)F (centres undefined) read A: -0.3011%; B: 11.09%; F: -33.87%.
Cc1cc(C(=O)N2CC[C@H]3C[C@H](c4ccncn4)O[C@@H]3C2)c(C)[nH]1 read C: 2.479%; D: 14.55%; E: 0.01686%.
Cc1cnn(C2(C(=O)O)CCN(c3ccncc3F)CC2)c1 read A: 3.558%; B: 18.95%; C: 4.813%; D: 2.618%; E: -6.206%; F: -35.03%.
CC(C)N1CCC(CC(=O)N2CCN(Cc3nccn3C)CC2)CC1 read A: -3.69%; B: 12.2%; C: 8.458%; D: 12.59%; E: 4.836%; F: 5.402%.
COCCn1ccnc1C1CCCN(c2ncnc3c2CCC3)C1 (centres undefined) read A: 1.488%; B: 2.537%; C: 12.66%; D: 14.58%; E: -5.793%; F: -24.11%.
CC(=O)c1c(F)cccc1NC1CCN(S(=O)(=O)C2CC2)CC1 read A: 24.38%; B: 10.28%; C: 0%; D: 21.88%; E: 0.1698%; F: -12.83%.
c1ccc(CN2CCCC(Cn3cncn3)C2)nc1 (centres undefined) read A: 14.46%; B: 0.9675%; C: 0.8721%; D: 7.895%; E: -17.12%; F: -47.88%.
CC(O)c1cccc(N2CCC3(CCC(=O)N(C4CCCC4)C3)CC2)n1 (centres undefined) read A: 10.91%; B: -30.7%; C: 10%; D: 18.37%; E: -7.908%; F: -22.54%.
CC(C)N(C)Cc1cnc2n1CCN(Cc1cccc(F)c1)C2 read C: 2%; D: 17.81%; E: -1.466%.
O=C(c1cccnc1)N1C[C@@H]2OCCN(CCN3CCCC3)[C@@H]2C1 read C: 14.71%; D: 22%; E: 4.78%.
COCC(=O)N1CCCC(c2cccc(-n3ccnc3)n2)C1 (centres undefined) read A: -0.6033%; B: -5.183% & -2.693%; C: 3.297%; D: 24.64%; E: 5.272%; F: 9.589%.
C[C@@H]1CN(Cc2cccc(F)c2)C[C@]12CCN(Cc1cccnc1)C2=O.O=C(O)C(F)(F)F.O=C(O)C(F)(F)F read A: -28.41%; B: -0.6911%; F: -74.2%.
CC(C)CC(=O)N1CCCn2cnc(CNS(C)(=O)=O)c2C1 read A: 21.02%; B: 6.797%; C: 8.411%; D: 13.89%; E: -11.64%; F: -37.19%.
O=C(CCNC(=O)C1CCCC1)NCc1ccccc1Cn1cncn1 read A: 0.9416%; B: 4.657%; C: 2.273%; D: 22.73%; E: 5.983%; F: -2.658%.
O=C(O)C(F)(F)F.[H][C@]12CCN(C(=O)c3ccco3)C[C@@]1([H])OCCN(C1CCOCC1)C2 read A: -14.27%; B: 39.91%; F: 0.7081%.
CN(Cc1ccc(F)cc1)CC1(O)CCN(C(=O)c2ccn(C)n2)C1 (centres undefined) read A: -6.05%; B: 6.134% & 8.964%; C: -1.111%; D: 0%; E: -4.573%; F: -13.85%.
Cc1noc(C)c1CN1C[C@H](OCC2CCN(C)CC2)[C@H]2COC[C@H]21 read C: 0.5587%; D: 7.692%; E: 15.53%.
COc1cc(C(=O)NCCCc2ccccc2)on1 read A: -1.802%; B: 7.481% & 1.789%; C: 1.031%; D: 8.696%; E: -2.549%; F: 10.61%.
Cc1cccc(N2CCc3ncnc(C4CC4)c3CC2)n1.O=C(O)C(F)(F)F read A: -2.066%; B: 27.68%; F: -2.498%.
COc1ccc(-n2ncc(C(C)NC3CCOCC3)c2C)cc1 (centres undefined) read A: 0.3464%; B: 4.423%; C: -0.5405%; D: -2.74%; E: -5.089%; F: -38.49%.
CNC(=O)[C@@H]1C[C@@H](NC(=O)c2cn(C)nc2C)CN1Cc1sccc1C read A: -5.75%; B: 17.27%; C: -4.255%; D: 4.478%; E: -6.654%; F: -1.972%.

For reference, 2 entries once more:

* CNC(=O)COC1COC2(CCN(Cc3ccncc3F)CC2)C1.O=C(O)C(F)(F)F (centres undefined) : A: -0.3011%; B: 11.09%; F: -33.87%
* CC(O)c1cccc(N2CCC3(CCC(=O)N(C4CCCC4)C3)CC2)n1 (centres undefined) : A: 10.91%; B: -30.7%; C: 10%; D: 18.37%; E: -7.908%; F: -22.54%

Source: ChEMBL document CHEMBL3988442, “University of Dundee, Small-Polar-MMV Screening Library” (2021).